{"source": "paper PMC7889885", "key": {"[1]": {"molecular_target": "full-length hNKCC1 tagged with flag and YFP, A735C in the C723S-C724V double mutation (human) (UniProt P55011)", "test": "cross-linking; oxidative cross-linking of single-cysteine mutants in HEK293 cells with 1.5 mM cupric phenanthroline in regular medium for 10-40 min before lysis; blot with T4 antibody"}, "[2]": {"molecular_target": "full-length hNKCC1 tagged with flag and YFP, W732C (human) (UniProt P55011)", "test": "cross-linking; HEK293 cells treated with 1 mM I2 in regular medium for 2 min; quenched with EDTA + N-ethyl maleimide; blot"}, "[3]": {"molecular_target": "full-length hNKCC1 tagged with flag and YFP, W732C (human) (UniProt P55011)", "test": "cross-linking; HEK293 cells treated with 200 uM MTS-3-MTS (1,3-propanediyl bismethanethiosulfonate) in regular medium for 10 min; MTSET as control; blot"}, "[4]": {"molecular_target": "full-length hNKCC1 tagged with flag and YFP, W732C (human) (UniProt P55011)", "test": "cross-linking; spontaneous disulfide cross-linking of single-cysteine mutants in HEK293 cells, without cupric phenanthroline; lysate on 7.5% Tris-glycine gel, blot with T4 antibody"}, "[5]": {"molecular_target": "T1, mouse KCC2 (mKCC2a, SLC12A5), twin-Strep tagged, as prepared for cryo-EM (mouse), Q91V14", "T1 chain": "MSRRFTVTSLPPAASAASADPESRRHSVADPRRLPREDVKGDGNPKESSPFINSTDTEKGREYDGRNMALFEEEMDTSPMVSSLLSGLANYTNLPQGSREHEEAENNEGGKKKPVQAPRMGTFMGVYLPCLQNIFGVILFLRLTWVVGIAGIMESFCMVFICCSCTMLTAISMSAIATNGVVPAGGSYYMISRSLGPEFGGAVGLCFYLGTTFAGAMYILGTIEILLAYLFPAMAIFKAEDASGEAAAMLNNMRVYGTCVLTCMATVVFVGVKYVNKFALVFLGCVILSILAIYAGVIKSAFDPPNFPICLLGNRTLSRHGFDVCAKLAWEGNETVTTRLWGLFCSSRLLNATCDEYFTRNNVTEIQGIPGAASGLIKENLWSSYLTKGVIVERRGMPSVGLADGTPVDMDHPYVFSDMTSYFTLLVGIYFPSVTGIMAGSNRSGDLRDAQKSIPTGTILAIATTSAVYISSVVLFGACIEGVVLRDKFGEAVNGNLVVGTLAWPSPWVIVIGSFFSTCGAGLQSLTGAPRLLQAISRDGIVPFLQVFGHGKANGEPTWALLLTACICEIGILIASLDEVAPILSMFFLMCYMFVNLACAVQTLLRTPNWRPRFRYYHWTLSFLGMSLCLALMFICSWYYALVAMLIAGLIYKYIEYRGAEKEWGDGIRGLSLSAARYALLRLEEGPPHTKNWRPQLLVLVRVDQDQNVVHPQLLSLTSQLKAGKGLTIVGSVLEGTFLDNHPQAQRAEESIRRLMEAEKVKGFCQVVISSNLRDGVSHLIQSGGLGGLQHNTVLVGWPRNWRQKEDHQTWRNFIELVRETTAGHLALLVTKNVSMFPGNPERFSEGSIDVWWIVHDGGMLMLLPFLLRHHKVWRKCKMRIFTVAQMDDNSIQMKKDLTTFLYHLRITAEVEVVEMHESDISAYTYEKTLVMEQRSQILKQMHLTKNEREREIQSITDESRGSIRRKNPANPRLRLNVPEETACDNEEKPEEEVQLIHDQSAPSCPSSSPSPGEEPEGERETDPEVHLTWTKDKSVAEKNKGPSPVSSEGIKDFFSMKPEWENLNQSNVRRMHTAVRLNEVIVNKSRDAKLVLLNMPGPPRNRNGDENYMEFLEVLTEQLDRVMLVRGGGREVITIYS", "test": "cryo-EM structure; single-particle cryo-EM of the purified transporter in 20 mM HEPES pH 7.4, 150 mM NaCl, 0.1% digitonin, ~10 mg/ml; C2 symmetry imposed; both purified", "conditions": "remark: other sources report otherwise"}}, "note": "Results are given in words; binding and its absence hold for the method and conditions named. For some assays here: In cells and extracts the contact can be indirect. Some entries that bind do so weakly or less than the wild type. Where a sequence is shown, tags or fusion partners need not be part of it."}
{"binder": "full-length hNKCC1 tagged with flag and YFP, A735C in the C723S-C724V double mutation (protein, UniProt P55011 1-1212) MEPRPTAPSSGAPGLAGVGETPSAAALAAARVELPGTAVPSVPEDAAPASRDGGGVRDEGPAAAGDGLGRPLGPTPSQSRFQVDLVSENAGRAAAAAAAAAAAAAAAGAGAGAKQTPADGEASGESEPAKGSEEAKGRFRVNFVDPAASSSAEDSLSDAAGVGVDGPNVSFQNGGDTVLSEGSSLHSGGGGGSGHHQHYYYDTHTNTYYLRTFGHNTMDAVPRIDHYRHTAAQLGEKLLRPSLAELHDELEKEPFEDGFANGEESTPTRDAVVTYTAESKGVVKFGWIKGVLVRCMLNIWGVMLFIRLSWIVGQAGIGLSVLVIMMATVVTTITGLSTSAIATNGFVRGGGAYYLISRSLGPEFGGAIGLIFAFANAVAVAMYVVGFAETVVELLKEHSILMIDEINDIRIIGAITVVILLGISVAGMEWEAKAQIVLLVILLLAIGDFVIGTFIPLESKKPKGFFGYKSEIFNENFGPDFREEETFFSVFAIFFPAATGILAGANISGDLADPQSAIPKGTLLAILITTLVYVGIAVSVGSCVVRDATGNVNDTIVTELTNCTSAACKLNFDFSSCESSPCSYGLMNNFQVMSMVSGFTPLISAGIFSATLSSALASLVSAPKIFQALCKDNIYPAFQMFAKGYGKNNEPLRGYILTFLIALGFILIAELNVIAPIISNFFLASYALINFSVFHASLAKSPGWRPAFKYYNMWISLLGAILSVIVMFVINWWACLLTYVIVLGLYIYVTYKKPDVNWGSSTQALTYLNALQHSIRLSGVEDHVKNFRPQCLVMTGAPNSRPALLHLVHDFTKNVGLMICGHVHMGPRRQAMKEMSIDQAKYQRWLIKNKMKAFYAPVHADDLREGAQYLMQAAGLGRMKPNTLVLGFKKDWLQADMRDVDMYINLFHDAFDIQYGVVVIRLKEGLDISHLQGQEELLSSQEKSPGTKDVVVSVEYSKKSDLDTSKPLSEKPITHKVEEEDGKTATQPLLKKESKGPIVPLNVADQKLLEASTQFQKKQGKNTIDVWWLFDDGGLTLLIPYLLTTKKKWKDCKIRVFIGGKINRIDHDRRAMATLLSKFRIDFSDIMVLGDINTKPKKENIIAFEEIIEPYRLHEDDKEQDIADKMKEDEPWRITDNELELYKTKTYRQIRLNELLKEHSSTANIIVMSLPVARKGAVSSALYMAWLEALSKDLPPILLVRGNHQSVLTFYS", "values": [{"measurement": "binding", "setting": "[1]", "result": "binds"}]}
{"binder": "full-length hNKCC1 tagged with flag and YFP, W732C (protein, UniProt P55011 1-1212) MEPRPTAPSSGAPGLAGVGETPSAAALAAARVELPGTAVPSVPEDAAPASRDGGGVRDEGPAAAGDGLGRPLGPTPSQSRFQVDLVSENAGRAAAAAAAAAAAAAAAGAGAGAKQTPADGEASGESEPAKGSEEAKGRFRVNFVDPAASSSAEDSLSDAAGVGVDGPNVSFQNGGDTVLSEGSSLHSGGGGGSGHHQHYYYDTHTNTYYLRTFGHNTMDAVPRIDHYRHTAAQLGEKLLRPSLAELHDELEKEPFEDGFANGEESTPTRDAVVTYTAESKGVVKFGWIKGVLVRCMLNIWGVMLFIRLSWIVGQAGIGLSVLVIMMATVVTTITGLSTSAIATNGFVRGGGAYYLISRSLGPEFGGAIGLIFAFANAVAVAMYVVGFAETVVELLKEHSILMIDEINDIRIIGAITVVILLGISVAGMEWEAKAQIVLLVILLLAIGDFVIGTFIPLESKKPKGFFGYKSEIFNENFGPDFREEETFFSVFAIFFPAATGILAGANISGDLADPQSAIPKGTLLAILITTLVYVGIAVSVGSCVVRDATGNVNDTIVTELTNCTSAACKLNFDFSSCESSPCSYGLMNNFQVMSMVSGFTPLISAGIFSATLSSALASLVSAPKIFQALCKDNIYPAFQMFAKGYGKNNEPLRGYILTFLIALGFILIAELNVIAPIISNFFLASYALINFSVFHASLAKSPGWRPAFKYYNMWISLLGAILCCIVMFVINCWAALLTYVIVLGLYIYVTYKKPDVNWGSSTQALTYLNALQHSIRLSGVEDHVKNFRPQCLVMTGAPNSRPALLHLVHDFTKNVGLMICGHVHMGPRRQAMKEMSIDQAKYQRWLIKNKMKAFYAPVHADDLREGAQYLMQAAGLGRMKPNTLVLGFKKDWLQADMRDVDMYINLFHDAFDIQYGVVVIRLKEGLDISHLQGQEELLSSQEKSPGTKDVVVSVEYSKKSDLDTSKPLSEKPITHKVEEEDGKTATQPLLKKESKGPIVPLNVADQKLLEASTQFQKKQGKNTIDVWWLFDDGGLTLLIPYLLTTKKKWKDCKIRVFIGGKINRIDHDRRAMATLLSKFRIDFSDIMVLGDINTKPKKENIIAFEEIIEPYRLHEDDKEQDIADKMKEDEPWRITDNELELYKTKTYRQIRLNELLKEHSSTANIIVMSLPVARKGAVSSALYMAWLEALSKDLPPILLVRGNHQSVLTFYS", "values": [{"measurement": "binding", "setting": "[2]", "result": "binds"}, {"measurement": "binding", "setting": "[3]", "result": "binds"}, {"measurement": "binding", "setting": "[4]", "result": "binds"}]}
{"binder": "mouse KCC2 (mKCC2a, SLC12A5), twin-Strep tagged, as prepared for cryo-EM, Q91V14 1-1138 (natural protein, here or on the partner: phosphorylation at T929 and T1029 (confirmed by mass spectrometry); phosphorylation at T929 and T1029 (confirmed by mass spectrometry)) MSRRFTVTSLPPAASAASADPESRRHSVADPRRLPREDVKGDGNPKESSPFINSTDTEKGREYDGRNMALFEEEMDTSPMVSSLLSGLANYTNLPQGSREHEEAENNEGGKKKPVQAPRMGTFMGVYLPCLQNIFGVILFLRLTWVVGIAGIMESFCMVFICCSCTMLTAISMSAIATNGVVPAGGSYYMISRSLGPEFGGAVGLCFYLGTTFAGAMYILGTIEILLAYLFPAMAIFKAEDASGEAAAMLNNMRVYGTCVLTCMATVVFVGVKYVNKFALVFLGCVILSILAIYAGVIKSAFDPPNFPICLLGNRTLSRHGFDVCAKLAWEGNETVTTRLWGLFCSSRLLNATCDEYFTRNNVTEIQGIPGAASGLIKENLWSSYLTKGVIVERRGMPSVGLADGTPVDMDHPYVFSDMTSYFTLLVGIYFPSVTGIMAGSNRSGDLRDAQKSIPTGTILAIATTSAVYISSVVLFGACIEGVVLRDKFGEAVNGNLVVGTLAWPSPWVIVIGSFFSTCGAGLQSLTGAPRLLQAISRDGIVPFLQVFGHGKANGEPTWALLLTACICEIGILIASLDEVAPILSMFFLMCYMFVNLACAVQTLLRTPNWRPRFRYYHWTLSFLGMSLCLALMFICSWYYALVAMLIAGLIYKYIEYRGAEKEWGDGIRGLSLSAARYALLRLEEGPPHTKNWRPQLLVLVRVDQDQNVVHPQLLSLTSQLKAGKGLTIVGSVLEGTFLDNHPQAQRAEESIRRLMEAEKVKGFCQVVISSNLRDGVSHLIQSGGLGGLQHNTVLVGWPRNWRQKEDHQTWRNFIELVRETTAGHLALLVTKNVSMFPGNPERFSEGSIDVWWIVHDGGMLMLLPFLLRHHKVWRKCKMRIFTVAQMDDNSIQMKKDLTTFLYHLRITAEVEVVEMHESDISAYTYEKTLVMEQRSQILKQMHLTKNEREREIQSITDESRGSIRRKNPANPRLRLNVPEETACDNEEKPEEEVQLIHDQSAPSCPSSSPSPGEEPEGERETDPEVHLTWTKDKSVAEKNKGPSPVSSEGIKDFFSMKPEWENLNQSNVRRMHTAVRLNEVIVNKSRDAKLVLLNMPGPPRNRNGDENYMEFLEVLTEQLDRVMLVRGGGREVITIYS", "values": [{"measurement": "binding", "setting": "[5]", "result": "binds"}]}
